Results deposited as PubChem BioAssay AID1259308 (NCATS, 2017)
Purpose: 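Knock-downs that increase output of a recombinant reporter protein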 (primary screen). Cells: human HEK293 embryonic kidney cells stably expressing firefly luciferase (HEK-CMV-Luc2-Hygro). Reagents: single siRNA against human genes, 0.8 pmol siRNA per well. Time to read-out: 72 h. Read-out: 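Reporter luminescence and viable-cell signal on separate replicate plates, given as percent of non-targeting control and median/MAD z-scores, plus per-cell luciferase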. Scale: total luciferase, z-score and total luciferase, % of control: higher = more reporter protein produced. Call rule: 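Active when the median/MAD z-score for overall luciferase is greater than 3; a gene was taken forward for validation with new siRNAs if at least two of its three siRNAs passed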. Meaning of the calls: active = raised luciferase; inactive = no rise.
Shown is an unselected part of about 59,000 reagents. In the full data, about 1,510 (2.6%) were called active. 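Calls use total luciferase alone and ignore viability, so some active siRNAs may act by altering cell number.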 Entries without a mark were called inactive. The numbers tell different reagents against one gene apart. Further read-outs or replicates are left out here.

LOC652608 #1: total luciferase, z-score = -0.856; total luciferase, % of control = 64.9
LOC652608 #2: total luciferase, z-score = -0.311; total luciferase, % of control = 75.7
LOC652608 #3: total luciferase, z-score = 0.996; total luciferase, % of control = 102
PCDHGB4 #1: total luciferase, z-score = 0.324; total luciferase, % of control = 88.3
PCDHGB4 #2: total luciferase, z-score = 0.0183; total luciferase, % of control = 82.3
PCDHGB4 #3: total luciferase, z-score = 0.217; total luciferase, % of control = 86.2
ANKRD34A #1: total luciferase, z-score = 1.61; total luciferase, % of control = 114
ANKRD34A #2: total luciferase, z-score = -0.463; total luciferase, % of control = 72.7
ANKRD34A #3: total luciferase, z-score = 0.923; total luciferase, % of control = 100
ICAM1 #1: total luciferase, z-score = 1.21; total luciferase, % of control = 106
ICAM1 #2: total luciferase, z-score = -1.27; total luciferase, % of control = 56.6
ICAM1 #3: total luciferase, z-score = -1.5; total luciferase, % of control = 52.1
GRK7 #1: total luciferase, z-score = -0.958; total luciferase, % of control = 62.8
GRK7 #2: total luciferase, z-score = 0.241; total luciferase, % of control = 86.7
GRK7 #3: total luciferase, z-score = 1.67; total luciferase, % of control = 115
TEX35 #1: total luciferase, z-score = -2.59; total luciferase, % of control = 30.3
TEX35 #2: total luciferase, z-score = 5.7 (active); total luciferase, % of control = 195
TEX35 #3: total luciferase, z-score = -1.7; total luciferase, % of control = 48
EPO #1: total luciferase, z-score = -0.519; total luciferase, % of control = 71.6
EPO #2: total luciferase, z-score = -0.515; total luciferase, % of control = 71.6
EPO #3: total luciferase, z-score = 0.803; total luciferase, % of control = 97.9
AMELY #1: total luciferase, z-score = 0.172; total luciferase, % of control = 85.3
AMELY #2: total luciferase, z-score = -0.185; total luciferase, % of control = 78.2
AMELY #3: total luciferase, z-score = 1.75; total luciferase, % of control = 117
ZSCAN1 #1: total luciferase, z-score = 0.435; total luciferase, % of control = 90.5
ZSCAN1 #2: total luciferase, z-score = 0.853; total luciferase, % of control = 98.9
ZSCAN1 #3: total luciferase, z-score = 1.36; total luciferase, % of control = 109
CWF19L1 #1: total luciferase, z-score = -1; total luciferase, % of control = 62
CWF19L1 #2: total luciferase, z-score = 0.646; total luciferase, % of control = 94.7
CWF19L1 #3: total luciferase, z-score = -0.374; total luciferase, % of control = 74.4
WWOX #1: total luciferase, z-score = -0.735; total luciferase, % of control = 67.3
WWOX #2: total luciferase, z-score = 4.35 (active); total luciferase, % of control = 168
WWOX #3: total luciferase, z-score = -0.354; total luciferase, % of control = 74.9
LRCOL1 #1: total luciferase, z-score = 2.16; total luciferase, % of control = 125
LRCOL1 #2: total luciferase, z-score = 3.25 (active); total luciferase, % of control = 146
LRCOL1 #3: total luciferase, z-score = -0.471; total luciferase, % of control = 72.5
RABIF #1: total luciferase, z-score = -1.88; total luciferase, % of control = 44.5
RABIF #2: total luciferase, z-score = 3 (active); total luciferase, % of control = 142
RABIF #3: total luciferase, z-score = 1.02; total luciferase, % of control = 102
EPHB6 #1: total luciferase, z-score = 0.78; total luciferase, % of control = 97.4
EPHB6 #2: total luciferase, z-score = -0.864; total luciferase, % of control = 64.7
EPHB6 #3: total luciferase, z-score = -1.63; total luciferase, % of control = 49.6

Targets above whose target name begins with L or l:
LOC652608 #1: total luciferase, z-score = -0.856; total luciferase, % of control = 64.9
LOC652608 #2: total luciferase, z-score = -0.311; total luciferase, % of control = 75.7
LOC652608 #3: total luciferase, z-score = 0.996; total luciferase, % of control = 102
LRCOL1 #1: total luciferase, z-score = 2.16; total luciferase, % of control = 125
LRCOL1 #2: total luciferase, z-score = 3.25 (active); total luciferase, % of control = 146
LRCOL1 #3: total luciferase, z-score = -0.471; total luciferase, % of control = 72.5
